# Data source: PubChem BioAssay AID1508587 (Peter MacCallum Cancer Centre, 2020)
# Screen: 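Knockdowns that add to vemurafenib's cut in melanoma glycolysis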 (follow-up of hits)
# System: human WM266.4 melanoma cells with a BRAF V600 mutation
# Knock-down reagent: single siRNA against human genes, 25 nM
# Duration: 96 h
# Challenge: vemurafenib 300 nM (about IC25), given 48 h after transfection for 48 h
# Read-out: 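Medium lactate read by absorbance over DAPI-counted nuclei; ratio with versus without vemurafenib, set against non-targeting siRNA, averaged over 2 replicates; cell number also recorded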
# Reading the numbers: lactate per cell, drug vs no drug: higher = less drug-induced drop in lactate per cell; lactate per cell with vemurafenib: higher = more lactate per cell under drug
# Call rule: 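a duplex is active when its lactate-per-cell ratio with versus without drug falls under 0.55, i.e. 2 SD below non-targeting; a gene is confirmed if 2 or more of 4 duplexes pass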
# This is one part, drawn at random, of about 1,600 reagents tested. 623 of all reagents (39%) count as active. 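Calls are for each duplex; lactate ratios contain extreme outliers.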 Reagents against one gene are numbered here. Not all columns of the deposit are shown. Reagent sequences are not shown.
Gene,reagent no.,"lactate per cell, drug vs no drug",lactate per cell with vemurafenib,outcome
UNC45B (GeneID 146862),1,0.58,0.91,inactive
UNC45B (GeneID 146862),2,0.5,1.81,active
UNC45B (GeneID 146862),3,0.62,2.52,inactive
UNC45B (GeneID 146862),4,0.41,1.57,active
APOO (GeneID 79135),1,0.71,1.94,inactive
APOO (GeneID 79135),2,0.6,1.54,inactive
APOO (GeneID 79135),3,0.35,0.37,active
APOO (GeneID 79135),4,0.58,0.84,inactive
SLC38A10 (GeneID 124565),1,0.48,1.26,active
SLC38A10 (GeneID 124565),2,0.62,0.88,inactive
SLC38A10 (GeneID 124565),3,0.68,1.23,inactive
SLC38A10 (GeneID 124565),4,0.76,2.39,inactive
BRIP1 (GeneID 83990),1,0.52,1.23,active
BRIP1 (GeneID 83990),2,0.5,0.82,active
BRIP1 (GeneID 83990),3,0.55,1.48,inactive
BRIP1 (GeneID 83990),4,0.57,1.19,inactive
MVP (GeneID 9961),1,0.18,0.28,active
MVP (GeneID 9961),2,0.52,1.69,active
MVP (GeneID 9961),3,0.38,0.8,active
MVP (GeneID 9961),4,0.6,1.04,inactive
